For the assay, the system named is HeLa cells. The assay can be described thus: Microtubule stability against Colcemid in HeLa cells (immunofluorescence). The class given is cell-based, human. To be noted: 1 μM Colcemid 15 minutes, no pretreatment, FIG. 11. The protocol:
HeLa cells were plated on the Lab-TekII Chambered Coverglass (Nunc), and were subjected to:
(1) treatment for 16 hours with 1 μM Paclitaxel (Sigma), a microtubule polymerizing agent;
(3) the introduction of HDAC6 antisense oligonucleotide No. 16 at a final concentration of 200 nM with OligofectAMINE followed by a 24-hour culture.
Colcemid (a derivative of colchicine) was dissolve in ethanol, and added to the medium to the final concentration of 1 μM, and the cells were incubated for 15 minutes (a time in which the microtubule is almost completely disappears without pre-treatment). […]

Regarding `CN[C@H]1CCc2cc(OC)c(OC)c(OC)c2-c2ccc(OC)c(=O)cc21` [Colcemid], the “microtubules in cells not pretreated” value is on record as “the microtuble disappeared”.
